Some of the results follow. The data scatter; read single values as rough.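 Many melting curves are irregular; where none melted, Tm was taken as 64 °C.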
Compound: CCc1cnccc1C(=O)Nc1cc2c(cc1F)NC(=O)CC2
Experiment: melting temperature shift (DMSO Tm minus MBE1-treated Tm) in cellular thermal proteome profiling; higher = less thermal stabilization by MBE1 (negative = stabilized by MBE1)
Details: A375

The chains behind the UniProt entries cited, without tags or fusion partners. Where a name states a change or a piece, a line headed by the entry shows the natural chain unless it says otherwise.
UniProt Q5T2E6: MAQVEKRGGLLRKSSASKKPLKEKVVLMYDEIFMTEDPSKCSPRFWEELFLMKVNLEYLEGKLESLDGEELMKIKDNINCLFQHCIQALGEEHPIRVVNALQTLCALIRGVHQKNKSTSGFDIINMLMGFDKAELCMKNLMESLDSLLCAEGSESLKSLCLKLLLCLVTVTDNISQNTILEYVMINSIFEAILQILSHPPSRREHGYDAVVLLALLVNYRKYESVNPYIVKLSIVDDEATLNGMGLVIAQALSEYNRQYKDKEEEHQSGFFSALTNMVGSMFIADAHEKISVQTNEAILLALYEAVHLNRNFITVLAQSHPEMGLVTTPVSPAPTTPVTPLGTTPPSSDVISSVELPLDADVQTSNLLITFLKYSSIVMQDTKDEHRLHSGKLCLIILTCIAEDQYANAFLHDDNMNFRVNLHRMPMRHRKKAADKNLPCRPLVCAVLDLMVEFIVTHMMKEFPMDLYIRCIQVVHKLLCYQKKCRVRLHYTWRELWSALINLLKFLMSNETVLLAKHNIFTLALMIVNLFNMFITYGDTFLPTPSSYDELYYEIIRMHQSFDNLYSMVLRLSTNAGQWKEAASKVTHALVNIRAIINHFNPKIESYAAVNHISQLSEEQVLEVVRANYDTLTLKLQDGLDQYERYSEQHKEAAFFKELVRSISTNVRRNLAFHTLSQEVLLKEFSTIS
UniProt Q5MNZ6: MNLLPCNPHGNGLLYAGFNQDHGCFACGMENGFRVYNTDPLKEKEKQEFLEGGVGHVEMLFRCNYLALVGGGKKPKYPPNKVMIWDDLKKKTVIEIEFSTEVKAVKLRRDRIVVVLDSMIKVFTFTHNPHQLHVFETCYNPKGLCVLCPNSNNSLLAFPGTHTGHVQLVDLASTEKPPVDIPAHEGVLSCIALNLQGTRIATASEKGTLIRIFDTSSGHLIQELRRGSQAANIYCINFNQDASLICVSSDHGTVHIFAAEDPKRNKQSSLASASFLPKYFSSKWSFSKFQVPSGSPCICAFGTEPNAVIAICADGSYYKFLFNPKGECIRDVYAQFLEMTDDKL
UniProt Q6P1K2: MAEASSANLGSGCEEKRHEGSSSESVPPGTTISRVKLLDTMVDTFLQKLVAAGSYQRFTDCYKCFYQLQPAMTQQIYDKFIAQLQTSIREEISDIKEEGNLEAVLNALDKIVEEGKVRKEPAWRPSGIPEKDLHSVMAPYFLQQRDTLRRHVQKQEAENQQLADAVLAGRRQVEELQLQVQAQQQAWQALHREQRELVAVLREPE
UniProt Q5VWQ0: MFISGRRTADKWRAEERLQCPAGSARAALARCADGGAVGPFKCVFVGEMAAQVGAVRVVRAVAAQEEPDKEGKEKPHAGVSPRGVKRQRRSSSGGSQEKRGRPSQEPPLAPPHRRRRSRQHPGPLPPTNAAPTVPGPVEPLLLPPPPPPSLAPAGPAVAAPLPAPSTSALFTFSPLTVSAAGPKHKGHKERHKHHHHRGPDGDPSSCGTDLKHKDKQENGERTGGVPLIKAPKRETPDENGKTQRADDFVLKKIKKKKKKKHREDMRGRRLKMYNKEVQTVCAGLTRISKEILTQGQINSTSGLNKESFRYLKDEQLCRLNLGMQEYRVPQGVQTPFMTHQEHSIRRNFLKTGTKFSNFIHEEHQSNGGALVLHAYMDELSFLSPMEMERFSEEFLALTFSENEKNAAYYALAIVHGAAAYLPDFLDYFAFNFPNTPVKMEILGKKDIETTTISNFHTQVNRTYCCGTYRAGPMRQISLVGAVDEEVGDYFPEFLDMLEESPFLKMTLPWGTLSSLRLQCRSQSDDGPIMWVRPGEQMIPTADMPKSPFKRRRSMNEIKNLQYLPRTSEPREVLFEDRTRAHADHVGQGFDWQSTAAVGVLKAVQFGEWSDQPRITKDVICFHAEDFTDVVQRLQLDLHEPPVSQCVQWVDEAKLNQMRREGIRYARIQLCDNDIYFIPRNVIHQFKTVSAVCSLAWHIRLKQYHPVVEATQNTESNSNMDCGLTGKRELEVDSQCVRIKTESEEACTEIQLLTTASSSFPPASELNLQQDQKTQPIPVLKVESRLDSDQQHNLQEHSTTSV
UniProt Q6F5E8: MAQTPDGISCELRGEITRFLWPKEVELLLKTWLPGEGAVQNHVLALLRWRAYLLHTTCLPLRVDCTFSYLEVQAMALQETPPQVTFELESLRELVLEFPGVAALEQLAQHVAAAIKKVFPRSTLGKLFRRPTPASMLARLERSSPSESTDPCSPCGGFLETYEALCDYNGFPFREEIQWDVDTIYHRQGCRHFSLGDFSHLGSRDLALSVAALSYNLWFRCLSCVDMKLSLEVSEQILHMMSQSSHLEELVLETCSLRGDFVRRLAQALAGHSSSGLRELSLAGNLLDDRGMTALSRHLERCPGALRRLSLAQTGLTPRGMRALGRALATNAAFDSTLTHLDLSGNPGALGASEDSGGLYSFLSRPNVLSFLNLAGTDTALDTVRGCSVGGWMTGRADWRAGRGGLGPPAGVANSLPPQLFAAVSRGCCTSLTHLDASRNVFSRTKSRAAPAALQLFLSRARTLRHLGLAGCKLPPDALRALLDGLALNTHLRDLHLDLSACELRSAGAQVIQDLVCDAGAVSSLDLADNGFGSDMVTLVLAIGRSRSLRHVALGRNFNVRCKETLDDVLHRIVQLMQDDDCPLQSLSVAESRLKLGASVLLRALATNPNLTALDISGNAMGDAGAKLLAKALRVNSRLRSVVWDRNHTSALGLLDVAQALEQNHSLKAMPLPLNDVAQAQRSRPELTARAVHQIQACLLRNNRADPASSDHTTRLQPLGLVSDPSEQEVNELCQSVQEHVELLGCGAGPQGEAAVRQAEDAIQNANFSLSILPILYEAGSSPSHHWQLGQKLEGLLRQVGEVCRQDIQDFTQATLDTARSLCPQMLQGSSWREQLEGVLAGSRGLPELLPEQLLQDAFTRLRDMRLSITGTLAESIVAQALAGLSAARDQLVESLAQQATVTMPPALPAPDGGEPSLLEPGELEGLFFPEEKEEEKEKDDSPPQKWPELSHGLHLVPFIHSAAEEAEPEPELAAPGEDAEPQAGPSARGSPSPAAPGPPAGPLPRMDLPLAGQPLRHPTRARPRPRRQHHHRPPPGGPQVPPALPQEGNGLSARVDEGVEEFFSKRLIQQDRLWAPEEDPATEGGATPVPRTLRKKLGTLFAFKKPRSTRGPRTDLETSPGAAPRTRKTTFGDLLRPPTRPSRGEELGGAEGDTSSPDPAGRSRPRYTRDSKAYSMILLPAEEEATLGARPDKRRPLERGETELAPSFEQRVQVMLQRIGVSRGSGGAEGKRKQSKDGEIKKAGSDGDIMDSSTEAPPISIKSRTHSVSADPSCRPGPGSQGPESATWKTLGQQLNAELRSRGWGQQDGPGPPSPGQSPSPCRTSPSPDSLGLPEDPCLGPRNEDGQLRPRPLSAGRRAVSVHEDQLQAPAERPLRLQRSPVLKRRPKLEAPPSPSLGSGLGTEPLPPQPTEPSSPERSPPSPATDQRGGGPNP
UniProt Q6P1X6: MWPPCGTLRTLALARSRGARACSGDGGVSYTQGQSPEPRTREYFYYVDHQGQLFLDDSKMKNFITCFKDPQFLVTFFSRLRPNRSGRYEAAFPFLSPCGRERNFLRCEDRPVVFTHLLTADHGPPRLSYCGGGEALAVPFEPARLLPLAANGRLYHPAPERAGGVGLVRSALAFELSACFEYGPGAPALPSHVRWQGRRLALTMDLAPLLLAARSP
UniProt Q6IN85: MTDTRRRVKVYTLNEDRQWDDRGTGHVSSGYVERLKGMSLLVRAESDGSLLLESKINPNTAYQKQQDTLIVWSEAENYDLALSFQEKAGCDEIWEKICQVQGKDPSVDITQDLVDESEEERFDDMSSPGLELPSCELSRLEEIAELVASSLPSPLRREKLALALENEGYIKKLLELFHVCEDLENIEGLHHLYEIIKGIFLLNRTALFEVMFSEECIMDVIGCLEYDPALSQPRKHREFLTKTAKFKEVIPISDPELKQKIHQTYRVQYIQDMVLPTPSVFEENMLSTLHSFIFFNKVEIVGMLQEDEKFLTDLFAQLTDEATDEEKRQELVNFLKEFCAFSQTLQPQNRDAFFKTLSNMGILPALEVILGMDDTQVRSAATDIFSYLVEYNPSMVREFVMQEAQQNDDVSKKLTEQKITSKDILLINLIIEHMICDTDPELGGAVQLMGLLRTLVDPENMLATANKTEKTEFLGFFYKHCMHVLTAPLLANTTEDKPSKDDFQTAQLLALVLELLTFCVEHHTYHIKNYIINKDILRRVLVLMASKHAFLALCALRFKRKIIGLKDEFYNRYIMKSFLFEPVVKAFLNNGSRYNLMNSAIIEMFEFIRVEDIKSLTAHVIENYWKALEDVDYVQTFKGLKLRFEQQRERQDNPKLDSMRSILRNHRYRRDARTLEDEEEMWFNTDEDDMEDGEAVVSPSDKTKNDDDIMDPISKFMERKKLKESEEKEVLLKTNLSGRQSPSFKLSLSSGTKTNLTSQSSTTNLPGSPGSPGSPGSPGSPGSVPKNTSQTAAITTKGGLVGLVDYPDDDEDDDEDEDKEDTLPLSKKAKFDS
UniProt Q5BJH7: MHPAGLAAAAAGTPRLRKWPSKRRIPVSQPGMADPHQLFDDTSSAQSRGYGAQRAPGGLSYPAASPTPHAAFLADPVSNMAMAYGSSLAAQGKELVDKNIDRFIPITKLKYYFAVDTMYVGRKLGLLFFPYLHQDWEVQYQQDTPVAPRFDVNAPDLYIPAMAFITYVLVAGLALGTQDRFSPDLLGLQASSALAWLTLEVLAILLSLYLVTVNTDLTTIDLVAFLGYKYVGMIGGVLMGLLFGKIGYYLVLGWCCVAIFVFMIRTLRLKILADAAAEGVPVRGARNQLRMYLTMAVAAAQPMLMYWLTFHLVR
UniProt Q6P2C8: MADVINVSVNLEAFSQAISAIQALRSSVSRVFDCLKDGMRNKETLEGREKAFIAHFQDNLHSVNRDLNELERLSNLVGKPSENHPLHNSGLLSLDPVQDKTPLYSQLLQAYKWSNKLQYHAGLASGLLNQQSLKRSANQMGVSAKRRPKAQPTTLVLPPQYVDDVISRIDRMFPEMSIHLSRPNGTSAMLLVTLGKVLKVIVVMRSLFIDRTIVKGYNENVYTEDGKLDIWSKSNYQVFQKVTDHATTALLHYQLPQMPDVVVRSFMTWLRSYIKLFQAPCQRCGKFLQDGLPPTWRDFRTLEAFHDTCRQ
UniProt Q5JPH6: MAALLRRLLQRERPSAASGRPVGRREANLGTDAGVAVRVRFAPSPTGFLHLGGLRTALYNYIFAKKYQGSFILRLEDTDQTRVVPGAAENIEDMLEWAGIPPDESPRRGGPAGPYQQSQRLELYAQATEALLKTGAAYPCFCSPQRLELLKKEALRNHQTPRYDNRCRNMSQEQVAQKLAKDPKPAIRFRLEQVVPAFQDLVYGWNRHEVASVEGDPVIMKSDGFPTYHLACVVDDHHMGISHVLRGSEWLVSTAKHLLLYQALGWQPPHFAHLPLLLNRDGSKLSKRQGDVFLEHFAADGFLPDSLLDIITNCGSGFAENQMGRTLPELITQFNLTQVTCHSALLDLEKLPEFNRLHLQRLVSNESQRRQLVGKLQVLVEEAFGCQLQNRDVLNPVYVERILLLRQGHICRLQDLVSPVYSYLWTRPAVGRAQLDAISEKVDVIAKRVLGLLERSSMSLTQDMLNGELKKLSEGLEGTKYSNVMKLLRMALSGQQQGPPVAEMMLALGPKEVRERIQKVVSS
UniProt Q5I7T1: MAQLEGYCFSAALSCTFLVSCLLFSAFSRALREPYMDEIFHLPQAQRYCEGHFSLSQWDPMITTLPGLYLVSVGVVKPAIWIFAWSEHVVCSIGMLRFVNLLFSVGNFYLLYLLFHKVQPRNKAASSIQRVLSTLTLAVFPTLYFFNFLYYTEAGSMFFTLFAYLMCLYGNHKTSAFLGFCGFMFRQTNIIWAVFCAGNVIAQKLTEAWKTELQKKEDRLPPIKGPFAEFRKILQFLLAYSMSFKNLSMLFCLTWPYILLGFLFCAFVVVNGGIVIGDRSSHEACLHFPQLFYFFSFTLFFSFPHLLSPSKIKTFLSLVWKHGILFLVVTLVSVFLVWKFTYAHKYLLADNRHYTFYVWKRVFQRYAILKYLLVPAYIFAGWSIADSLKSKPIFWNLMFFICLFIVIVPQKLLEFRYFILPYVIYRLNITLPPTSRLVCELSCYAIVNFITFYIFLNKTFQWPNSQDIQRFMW
UniProt Q58FF8, whole entry: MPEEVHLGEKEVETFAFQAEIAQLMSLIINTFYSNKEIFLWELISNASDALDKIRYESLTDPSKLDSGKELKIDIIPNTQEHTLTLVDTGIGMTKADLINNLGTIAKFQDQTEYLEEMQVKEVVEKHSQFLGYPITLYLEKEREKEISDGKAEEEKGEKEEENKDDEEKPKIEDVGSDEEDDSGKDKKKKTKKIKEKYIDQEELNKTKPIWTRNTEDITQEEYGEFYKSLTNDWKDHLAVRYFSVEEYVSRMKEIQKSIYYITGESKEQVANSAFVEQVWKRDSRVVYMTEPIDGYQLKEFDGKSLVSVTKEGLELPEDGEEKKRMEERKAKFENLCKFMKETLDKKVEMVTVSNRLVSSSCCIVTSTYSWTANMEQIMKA

Row | Target | melting temperature shift (MBE1 concentration: 100 nM) | melting temperature shift (MBE1 concentration: 1 uM)
1 | ANGEL2 (UniProt Q5VTE6) | 0.183 °C | -1.77 °C
2 | CC2D1B (UniProt Q5T0F9) | 0.898 °C | 0.269 °C
3 | CPSF3L (UniProt Q5TA45) | -0.208 °C | -0.275 °C
4 | UniProt Q6KCM7 | -0.288 °C | 0.525 °C
5 | C10ORF76 (UniProt Q5T2E6) | -0.769 °C | -0.543 °C
6 | DCAF15 (UniProt Q66K64) | -0.189 °C | 0.586 °C
7 | AARS2 (UniProt Q5JTZ9) | -0.878 °C | -0.746 °C
8 | ARMC6 (UniProt Q6NXE6) | -0.115 °C | 0 °C
9 | TNS2 (UniProt Q63HR2) | -0.743 °C | -0.108 °C
10 | FKBP15 (UniProt Q5T1M5) | 0.452 °C | -0.336 °C
11 | WDR45B (UniProt Q5MNZ6) | -1.58 °C | -1.88 °C
12 | RABL3 (UniProt Q5HYI8) | -0.221 °C | 0.583 °C
13 | UniProt Q5T7W0 | -3.76 °C | -0.305 °C
14 | UniProt Q5EBM0 | 0.369 °C | 3.67 °C
15 | PMF1 (UniProt Q6P1K2) | 0.537 °C | -0.812 °C
16 | FAM21A (UniProt Q641Q2) | 0.452 °C | -0.171 °C
17 | RSBN1 (UniProt Q5VWQ0) | -1.91 °C | 0.641 °C
18 | UniProt Q69YH5 | 0.452 °C | 0.537 °C
19 | UniProt Q6P1K8 | -1.01 °C | -0.461 °C
20 | TTC38 (UniProt Q5R3I4) | 0.672 °C | 0.464 °C
21 | UniProt Q6F5E8 | -1.64 °C | -2.47 °C
22 | ATPAF1 (UniProt Q5TC12) | 1.78 °C | 1.2 °C
23 | CEP170 (UniProt Q5SW79) | 0.311 °C | 0.116 °C

Whole records from above. Values in the order: melting temperature shift (MBE1 concentration: 100 nM)	melting temperature shift (MBE1 concentration: 1 uM)
ARMC6 (UniProt Q6NXE6) as listed: -0.115 °C	0 °C
AARS2 (UniProt Q5JTZ9) as listed: -0.878 °C	-0.746 °C
UniProt Q69YH5 as listed: 0.452 °C	0.537 °C
UniProt Q5T7W0 as listed: -3.76 °C	-0.305 °C

Next entries.

Row | Target | melting temperature shift (MBE1 concentration: 100 nM) | melting temperature shift (MBE1 concentration: 1 uM)
24 | UniProt Q5T6S3 | -0.579 °C | -0.826 °C
25 | DCAF6 (UniProt Q58WW2) | -2.58 °C | -3.54 °C
26 | ODR4 (UniProt Q5SWX8) | 0.281 °C | -0.0488 °C
27 | UBR4 (UniProt Q5T4S7) | 0.861 °C | 0.299 °C
28 | UniProt Q5JSJ4 | -1.11 °C | -2.78 °C
29 | CDKAL1 (UniProt Q5VV42) | 0.717 °C | 0.287 °C
30 | NHSL1 (UniProt Q5SYE7) | -0.476 °C | 0.235 °C
31 | C8ORF82 (UniProt Q6P1X6) | -0.986 °C | 0.0427 °C
32 | PPP4R3A (UniProt Q6IN85) | -0.595 °C | 0.366 °C
33 | UniProt Q5T200 | -0.543 °C | -0.494 °C
34 | UniProt Q6BCY4 | -0.201 °C | -0.912 °C
35 | UniProt Q5JPI3 | -1.08 °C | -0.864 °C
36 | FAM160B1 (UniProt Q5W0V3) | -0.387 °C | -0.00671 °C
37 | UniProt Q66GS9 | 0.228 °C | 1.93 °C
38 | TPRG1L (UniProt Q5T0D9) | -0.362 °C | 0.188 °C
39 | RNF20 (UniProt Q5VTR2) | -0.397 °C | -0.455 °C
40 | CCDC18 (UniProt Q5T9S5) | 0.195 °C | 3.96 °C
41 | YIF1B (UniProt Q5BJH7) | -1.17 °C | -1.5 °C
42 | RNF187 (UniProt Q5TA31) | -0.0805 °C | -1.57 °C
43 | LYPLAL1 (UniProt Q5VWZ2) | 0.208 °C | 0.0201 °C
44 | SNX30 (UniProt Q5VWJ9) | 0.311 °C | -0.25 °C
45 | SFXN4 (UniProt Q6P4A7) | -2.49 °C | 0.208 °C
46 | UniProt Q659A1 | -2.17 °C | 0.0413 °C

Row | Target | melting temperature shift (MBE1 concentration: 100 nM) | melting temperature shift (MBE1 concentration: 1 uM)
47 | KIAA0930 (UniProt Q6ICG6) | -1.11 °C | -0.671 °C
48 | LPCAT3 (UniProt Q6P1A2) | 0.708 °C | 0.47 °C
49 | THOC7 (UniProt Q6I9Y2) | 0.611 °C | -0.147 °C
50 | DENND4C (UniProt Q5VZ89) | 0.885 °C | 0.0794 °C
51 | WDR73 (UniProt Q6P4I2) | -0.181 °C | 0.483 °C
52 | DAB2IP (UniProt Q5VWQ8) | -1.94 °C | -0.999 °C
53 | MED27 (UniProt Q6P2C8) | -1.86 °C | -2.21 °C
54 | ZCCHC8 (UniProt Q6NZY4) | -0.306 °C | 0.232 °C
55 | UniProt Q68DK7 | 0.167 °C | 0.81 °C
56 | TNS3 (UniProt Q68CZ2) | -0.604 °C | -0.519 °C
57 | KIAA1217 (UniProt Q5T5P2) | -0.873 °C | -0.365 °C
58 | PPP6R3 (UniProt Q5H9R7) | -0.892 °C | 0.74 °C
59 | EARS2 (UniProt Q5JPH6) | -0.461 °C | -0.218 °C
60 | LMBRD2 (UniProt Q68DH5) | -1.53 °C | -1.58 °C
61 | PRRC2B (UniProt Q5JSZ5) | -2.83 °C | 0.44 °C
62 | UniProt Q5BKX5 | 0.989 °C | -0.338 °C
63 | GLT8D1 (UniProt Q68CQ7) | 0.318 °C | -0.14 °C
64 | UniProt Q5I7T1 | -0.255 °C | 0.656 °C
65 | GPR107 (UniProt Q5VW38) | -2.55 °C | -3.23 °C
66 | UniProt Q5VUJ6 | 1.27 °C | -1.22 °C
67 | VPS53 (UniProt Q5VIR6) | -0.395 °C | -0.824 °C
68 | UniProt Q58FF8 | -0.0672 °C | 0.299 °C
